Assay results from PubChem BioAssay AID504444 (National Center for Advancing Translational Sciences (NCATS), 2011).
Hit rate of the full screen: of about 360,000 compounds, about 7,500 (2.1%) were called active. The shares of active, inactive and inconclusive entries below differ from those in the screen. The call rests on the fitted dose curve; in most records, active means well fitted inhibition curve with a large enough effect; inconclusive means small, poorly fitted or top-dose-only effect, or effect the other way; inactive means flat fitted curve, though single readings scatter. Potencies beside an inconclusive call are fits to weak or partial responses and may not hold up.

Experiment: Nrf2 qHTS screen for inhibitors; further: nearly all actives have a fitted effect of over 60% in size
Conditions: A549 ARE-Fluc reporter, luciferase luminescence, 18-24 h; series mostly up to 46 µM
Procedure, shortened: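 A549 ARE_Fluc cells, 5000/well, 5% FBS OPTI-MEM; compounds in dose-response, 18-24 h at 37 °C/5% CO2; CellTiter-Fluor viability read (Ex 405/Em 525), then BugLite luciferase luminescence = Nrf2 activity.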
Potency means the concentration at half of the fitted maximal effect.

SMILES | Potency
CC(C)Sc1nc2c(c(=O)[nH]c(=O)n2C)n1Cc1ccc(Cl)cc1 | inconclusive: 20.6 µM [falling, single point]
COc1ccc2nc(NC(=O)CSc3nnnn3C)sc2c1 | inconclusive: 13 µM [activator, partial curve, poor fit]
CCOc1cc2sc(N3CCC(C(=O)Nc4ccccc4Cl)CC3)nc2cc1Br | inconclusive: 2.31 µM [falling, partial curve, poor fit]
NNC(=O)c1cc(-c2cccs2)nc2ccccc12 | inconclusive: 23.1 µM [activator, single point]
Cc1ccc(CN2CCC(CNC(=O)c3cc4ccc5cccnc5c4[nH]3)CC2)cc1 | inconclusive: 11.6 µM [activator, partial curve, poor fit]
COc1cc(/C=N/n2nnnc2N)cc(Cl)c1OC | inconclusive: 18.4 µM [falling, single point]
O=C(C[C@H]1C[C@H](C(=O)N2CCOCC2)[C@@]2(CCC3CCCC3)c3[nH]c4cc(-c5ccco5)ccc4c3CCN2C1=O)NCCCn1ccnc1 | inconclusive: 29.1 µM [falling, partial curve, poor fit]
Cc1ccc(Nc2nnc(SCC(=O)Nc3cccnc3Cl)s2)cc1C | inconclusive: 32.6 µM [falling, single point]
CCN(CC)C(=O)COc1ccc(-c2nnc(N3CCCCC3)c3ccccc23)cc1 | inactive
COc1ccc(NC(=O)C(c2ccc(OC)cc2)N(C)C(=O)c2cnccn2)cc1 (configuration not stated) | inconclusive: 8.2 µM [activator, partial curve, poor fit]
COCCn1c(NC(=S)NC(=O)C2CC2)cc(=O)[nH]c1=O | inactive
CCOC(=O)C1=C(C)NC(=O)/C1=C\N(C)C | inconclusive: 4.61 µM [activator, single point]
O=C(CNC(=O)c1ccco1)Nc1ccc2c(c1)OCCO2 | inconclusive: 0.651 µM [activator, full curve]
COc1ccc(NC(=O)C2CCN(c3cc(C)nc(-c4ccccc4)n3)CC2)cc1 | inconclusive: 11.6 µM [falling, partial curve, poor fit]
CCCCC(CC)CNC(=O)c1ccc2c(=O)n(CCOC)c(=O)[nH]c2c1 (configuration not stated) | inconclusive: 29.1 µM [activator, single point]
FC(F)(F)c1nc(-c2cccs2)ncc1-c1nnnn1-c1ccc(Cl)cc1 | active: 23.1 µM
O=c1oc2ccccc2cc1-c1ccccc1 | inconclusive: 25.9 µM [activator, single point]
O=C(CN1CCOCC1)Nc1ccc(S(=O)(=O)N2CCCCCC2)cc1 | inconclusive: 6.51 µM [activator, single point]
CC(=O)c1cccc(NC(=O)CSC(=O)c2ccccc2)c1 | inconclusive: 0.116 µM [activator, full curve, poor fit]
Cc1cc(N2CCN(c3cccc(C(F)(F)F)c3)CC2)n2ncnc2n1 | inconclusive: 29.1 µM [falling, single point]
CC(=O)c1cccc(S(=O)(=O)N2CCN(c3ccccc3F)CC2)c1 | inconclusive: 18.4 µM [falling, single point]
Cc1ccccc1N1C(=O)C(Oc2ccc(Cl)cc2)C1CNCCCOC(C)C (configuration not stated) | inconclusive: 29.1 µM [falling, single point]
CC(C)[C@H](NC(=O)OCc1ccccc1)C(=O)OCC(=O)NC1CCCCC1 | inconclusive: 29.1 µM [activator, single point]

SMILES | Potency
O=C(COc1cccc2cccnc12)Nc1nccs1 | inconclusive: 29.1 µM [activator, single point]
CCCCn1c(N)c(N(CCOC)C(=O)c2cc(-c3ccc(OC)cc3)nc3ccccc23)c(=O)[nH]c1=O | inconclusive: 1.64 µM [falling, partial curve, poor fit]
CN(C(=O)c1ccc2ccccc2c1)c1ccccn1 | inconclusive: 23.1 µM [activator, single point]
O=C(NCC(c1cccnc1)N1CCN(c2ccccc2)CC1)OCc1ccccc1 (configuration not stated) | inactive
Cc1ccc(C(=O)OCC(=O)NC2CC2)cc1S(=O)(=O)N1CCOCC1 | inactive
COc1ccc(/C(=N/Nc2ncnc3ccccc23)C(=O)O)cc1 | inconclusive: 2.06 µM [activator, full curve]
CCCCCCCCCCOC(=O)Cn1c(COc2cccc(C)c2)[n+](C)c2ccccc21 | inactive
COc1ccc(-c2noc(N3CCN(c4cccc(Cl)c4)CC3)n2)cc1OC | active: 23.1 µM
CC(C(=O)Nc1ccc(F)c(Cl)c1)N1Cc2ccccc2C1=O (configuration not stated) | inactive
Cc1cc(OCC(=O)Nc2cc(-c3nc4ccccc4[nH]3)ccc2C)ccc1Cl | inconclusive: 29.1 µM [falling, single point]
O=[N+]([O-])c1cccc(C2Nc3cccc4cccc(c34)N2)c1 | inactive
Nc1cc2sc(-c3ccc(C(=O)O)cc3)nc2cc1Cl | inconclusive: 0.58 µM [activator, full curve, poor fit]
COc1ccc(N(CC(=O)NC2CCCCCC2)S(=O)(=O)c2c(C)nn(C)c2C)cc1 | inconclusive: 9.2 µM [falling, partial curve, poor fit]
CCCCC(c1nnnn1Cc1ccco1)N1CCN(c2nc3ccccc3s2)CC1 (configuration not stated) | inconclusive: 25.9 µM [falling, single point]
COc1ccccc1CNC(=O)COc1cc(=O)n(C)c2ccccc12 | inactive
CCOC(=O)C1=C(C)N(CCCC(=O)O)C(=O)NC1c1ccc([N+](=O)[O-])cc1 (configuration not stated) | inactive
Cc1ccc2c(n1)sc1c(-c3ccc(Br)cc3)c(C#N)c(N)nc12 | active: 20.6 µM
O=S(=O)(c1cccc(Cn2nnc(-c3ccc(F)cc3)n2)c1)N1CCOCC1 | inconclusive: 29.1 µM [falling, single point]
CCOc1ccc(S(=O)(=O)N(CC(=O)NC2CCCCC2C)Cc2ccco2)cc1 (configuration not stated) | inconclusive: 29.1 µM [falling, single point]
C=C(C)c1cccc(C(C)(C)NC(=O)Nc2ccc(C)cn2)c1 | inconclusive: 29.1 µM [falling, single point]
O=C(NCc1ccccc1)c1ccc(CS(=O)(=O)Cc2ccc(F)cc2)o1 | inconclusive: 29.1 µM [falling, single point]
C=CCn1c(Oc2ccc(C=O)cc2OCC)nc2c1c(=O)n(C)c(=O)n2C | inactive
CN=c1scc(-c2ccccc2F)n1/N=C/c1ccc(O)c(O)c1O | active: 11.6 µM

Random excerpt: 2 compounds from above, in no set order.
SMILES | Potency
Nc1cc2sc(-c3ccc(C(=O)O)cc3)nc2cc1Cl | inconclusive: 0.58 µM [activator, full curve, poor fit]
Cc1cc(OCC(=O)Nc2cc(-c3nc4ccccc4[nH]3)ccc2C)ccc1Cl | inconclusive: 29.1 µM [falling, single point]

Exported with tabs: part of the list above.
SMILES	Potency
Cc1cc(OCC(=O)Nc2cc(-c3nc4ccccc4[nH]3)ccc2C)ccc1Cl	inconclusive: 29.1 µM [falling, single point]
O=[N+]([O-])c1cccc(C2Nc3cccc4cccc(c34)N2)c1	inactive

Carrying on:

SMILES | Potency
CCOC(=O)C1(CCCc2ccccc2)CCN(C(=O)CN2CCOC2=O)CC1 | inactive
CCCOc1ccc(C(=O)N(Cc2cccs2)c2ccc(C)cc2)cc1 | inconclusive: 18.4 µM [falling, single point]
O=C(c1ccco1)N1CCN(c2c(-c3ccccc3)c3cc(Cl)ccc3[nH]c2=O)CC1 | inconclusive: 29.1 µM [falling, single point]
CCOC(=O)c1c(C)oc2ncnc(NCCCN3CCN(c4cc(C)ccc4C)CC3)c12 | inconclusive: 32.6 µM [falling, single point]
NC(=O)c1ccsc1NC(=O)COC(=O)c1ccc([N+](=O)[O-])o1 | inactive
O=C(Nc1ccc(F)cc1)C1CCCN(c2cnccn2)C1 (configuration not stated) | inconclusive: 16.4 µM [falling, single point]
CCOC(=O)c1ccc(NC(=O)C2CCN(C(=O)N3CC(C)Oc4ccc(C)cc43)CC2)cc1 (configuration not stated) | inactive
COc1ccccc1CNC(=O)Nc1cccs1 | inconclusive: 11.6 µM [activator, partial curve, poor fit]
CCOC(=O)c1ccc(Oc2nc(NC)nc(SC)n2)cc1 | inconclusive: 32.6 µM [falling, single point]
CC(C)n1cc(CN2CCC(Oc3ccc(C(=O)N4CCCC4)cc3)CC2)cn1 | inconclusive: 3.66 µM [falling, single point]
C=CC[n+]1c(/C=C/c2ccc(OC(C)=O)c(OC)c2)ccc2ccccc21 | inconclusive: 29.1 µM [falling, single point]
COc1ccc(C(=O)Nc2ccc(NC(=O)c3cccc(OC)c3)cn2)cc1 | inconclusive: 29.1 µM [falling, single point]
COc1ccccc1-c1cccc([C@@H]2C[C@H]3[C@H](CON3C)CN2Cc2cc(Cl)cc(Cl)c2)c1 | inconclusive: 9.2 µM [falling, partial curve, poor fit]
COc1cc(Cl)c(C)cc1Nc1nc2ccccc2nc1NS(=O)(=O)c1ccccc1 | inconclusive: 14.6 µM [activator, partial curve]
CCOc1ccc(N=C(NN)c2ccc3ccccc3n2)cc1 | inconclusive: 1.84 µM [activator, partial curve, poor fit]
N#C/C(=C(/O)COC(=O)c1ccccc1O)c1nc2ccccc2s1 | inconclusive: 29.1 µM [falling, single point]
Cc1cc(C)nc(OC(C(=O)O)C(OCCc2ccccc2)(c2ccccc2)c2ccccc2)n1 (configuration not stated) | active: 13 µM
O=C(CCCN1CCOCC1)c1ccc2c(c1)OCCO2 | inconclusive: 1.84 µM [activator, full curve]
OCCCc1nc2ccccc2[nH]1 | inconclusive: 32.6 µM [falling, single point]
CCOC(=O)CCc1c(C)c2ccc(OCC(=O)OC(C)C)cc2oc1=O | inconclusive: 2.59 µM [falling, partial curve, poor fit]
Cc1cccc(C(=O)Nc2ccc(-c3nc4cc(C(C)C)ccc4o3)cc2)c1 | active: 14.6 µM
